Results published in PMC9739881.
Results are given in words; binding and its absence hold for the method and conditions named.

B1: OsPK1 (enzyme, UniProt Q2RAK2 1-527)
chain: MHSTNLLLEEPIRMASILEPSKPSFFPAMTKIVGTLGPKSRAVDTISSCLKAGMSVARFDFSWGDAEYHQETLENLKLAIKSTKKLCAVMLDTVGPELQVVNKSEAAISLEANGTVVLTPDQGQEASSELLPINFSGLAKALKPGATIFVGQYLFTGSETTSVWLEVSEVKGDDVVCVIKNSATLAGSLFTLHCSQIHIDLPTLSDEDKEVIRRWGAPNKIDFLSLSYTRHAEDVRQAREFLSKLGDLSQTQIFAKIENVEGLNHFDEILQEADGIILSRGNLGIDLPPEKVFLFQKSALHKCNMAGKPAVVTRVVDSMTDNLRPTRAEATDVANAVLDGSDAILLGAETLRGLYPVETISIVGKICAEAEKVFNQDLYFKRTVKYVGEPMTHLESIASSAVRAAIKVKASVIICFTSSGRAARLIAKYRPTMPVLSVVIPRLKTNQLRWSFTGAFEARQSLIVRGLFPMLADPRHPAESTSATNESVLKVALDHGKASGVIKSHDRVVVCQKVGDSSVVKIIELDD

How the values were obtained:
OsPK1 (rice (japonica)) = biological target: T1, OsPK1 (rice (japonica)) (UniProt Q2RAK2); assay: two-hybrid; yeast two-hybrid; pGADT7 prey vector and pGBKT7 bait vector; one-tenth dilution series spotted on SD/-Leu/-Trp and on selective SD/-Leu/-Trp/-Ade/-His
T1 sequence: B1 chain

OsPK10 (rice (japonica)) = assay: as above

Row | Molecule | binding (OsPK1 (rice (japonica))) | binding (OsPK10 (rice (japonica)))
1 | OsPK4 (rice (japonica)) (enzyme) | no binding | –
2 | B1 | – | no binding
